# Data: patent US7888349B2, “Piperazine, [1,4]Diazepane, [1,4]Diazocane, and [1,5]Diazocane fused imidazo ring compounds” (3M Innovative Properties Company, priority 2003, dated 2011)
# Some of these results come from one statement about several compounds together.
# Test system: human peripheral blood mononuclear cells (PBMC)
# Test: Cytokine Induction in Human Cells (interferon α and tumor necrosis factor α secreted into culture media)
# Assay type: cell-based
# Settings: compounds generally tested at 30-0.014 μM, incubated 18 to 24 hours, ELISA of supernatant
row,SMILES,induction of production of interferon α and/or tumor necrosis factor α
1,Cc1cccc(C(=O)N2CCCn3c(nc4c(N)nc5ccccc5c43)C2)c1.O=C(O)C(F)(F)F [Example 204],inducing the production of interferon α and/or tumor necrosis factor α
2,"CS(=O)(=O)N1CCCn2c(nc3c(N)nc4cccnc4c32)C1 [Example 364, 9-(Methylsulfonyl)-9,10,11,12-tetrahydro-8H-[1,4]diazepino[1′,2′:1,2]imidazo[4,5-c][1,5]naphthyridin-6-amine]",inducing the production of interferon α and/or tumor necrosis factor α
3,Cc1nc(N)c2nc3n(c2c1C)CCN(C(=S)N(C)C)C3 [Example 639],inducing the production of interferon α and/or tumor necrosis factor α
4,Cc1cccc(S(=O)(=O)N2CCn3c(nc4c(N)nc(C)c(C)c43)C2)c1 [Example 625],inducing the production of interferon α and/or tumor necrosis factor α
5,Cc1nc(N)c2nc3n(c2c1C)CCN(C(=O)Nc1ccccc1)C3 [Example 638],inducing the production of interferon α and/or tumor necrosis factor α
6,COc1ccc(C(=O)COc2ccc3c(c2)nc(N)c2nc4n(c23)CCN(S(C)(=O)=O)C4)cc1 [Example 493],inducing the production of interferon α and/or tumor necrosis factor α
7,Cc1nc(N)c2nc3n(c2c1C)CCCN(C(=O)C1CC1)C3 [Example 497],inducing the production of interferon α and/or tumor necrosis factor α
8,Nc1nc2ccccc2c2c1nc1n2CCCN(Cc2ccccc2F)C1.O=C(O)C(F)(F)F [Example 130],inducing the production of interferon α and/or tumor necrosis factor α
9,Nc1nc2ccccc2c2c1nc1n2CCCN(Cc2ccc3ccccc3c2)C1.O=C(O)C(F)(F)F [Example 159],inducing the production of interferon α and/or tumor necrosis factor α
10,"CS(=O)(=O)N1CCCn2c(nc3c(N)nc4cc(O)ccc4c32)C1 [Example 489, 6-amino-9-(methylsulfonyl)-9,10,11,12-tetrahydro-8H-[1,4]diazepino[1′,2′:1,2]imidazo[4,5-c]quinolin-3-ol]",inducing the production of interferon α and/or tumor necrosis factor α
11,CC(C)(C)CC(=O)N1CCCn2c(nc3c(N)nc4ccccc4c32)C1.O=C(O)C(F)(F)F [Example 197],inducing the production of interferon α and/or tumor necrosis factor α
12,COc1ccc(NC(=O)N2CCn3c(nc4c(N)nc5ccccc5c43)C2)cc1 [Example 106],inducing the production of interferon α and/or tumor necrosis factor α
13,CS(=O)(=O)N1CCn2c(nc3c(N)nc4cc(-c5ccccc5)ccc4c32)C1 [Example 386],inducing the production of interferon α and/or tumor necrosis factor α
14,Cc1ccc(S(=O)(=O)N2Cc3nc4c(N)nc5ccccc5c4n3CC(O)C2)cc1 (racemic) [Example 345],inducing the production of interferon α and/or tumor necrosis factor α
15,Nc1nc2ccccc2c2c1nc1n2CCCN(Cc2cc(F)cc(F)c2)C1.O=C(O)C(F)(F)F [Example 153],inducing the production of interferon α and/or tumor necrosis factor α
16,COC(=O)N1CCCn2c(nc3c(N)nc4cc(OCc5ccccc5)ccc4c32)C1 [Example 439],inducing the production of interferon α and/or tumor necrosis factor α

row,SMILES,induction of production of interferon α and/or tumor necrosis factor α
1,Cc1nc(N)c2nc3n(c2c1C)CCN(S(=O)(=O)c1cccc2cccnc12)C3 [Example 631],inducing the production of interferon α and/or tumor necrosis factor α
2,COC(=O)N1CCn2c(nc3c(N)nc(C)c(C)c32)C1 [Example 612],inducing the production of interferon α and/or tumor necrosis factor α
3,Nc1nc2ccccc2c2c1nc1n2CCCN(C(=O)c2cccc3ccccc23)C1.O=C(O)C(F)(F)F [Example 231],inducing the production of interferon α and/or tumor necrosis factor α
4,Cc1cccc(S(=O)(=O)N2CCn3c(nc4c(N)nc5ccccc5c43)C2)c1 [Example 84],inducing the production of interferon α and/or tumor necrosis factor α
5,Cc1ccc(CN2CCn3c(nc4c(N)nc5ccccc5c43)C2)cc1.O=C(O)C(F)(F)F [Example 25],inducing the production of interferon α and/or tumor necrosis factor α
6,CS(=O)(=O)N1CCCn2c(nc3c(N)nc4cc(OCCCn5cccc5)ccc4c32)C1 [Example 491],inducing the production of interferon α and/or tumor necrosis factor α
7,"CS(=O)(=O)N1CCCn2c(nc3c(N)nc4cc(Br)ccc4c32)C1 [Example 365, 3-Bromo-9-(methylsulfonyl)-9,10,11,12-tetrahydro-8H-[1,4]diazepino[1′,2′:1,2]imidazo[4,5-c]quinolin-6-amine]",inducing the production of interferon α and/or tumor necrosis factor α
8,Nc1nc2ccccc2c2c1nc1n2CCN(CCCc2ccccc2)C1.O=C(O)C(F)(F)F [Example 39],inducing the production of interferon α and/or tumor necrosis factor α
9,CC(C)CCN1CCn2c(nc3c(N)nc4ccccc4c32)C1.O=C(O)C(F)(F)F [Example 9],inducing the production of interferon α and/or tumor necrosis factor α
10,Nc1nc2cc(OCc3ccccc3)ccc2c2c1nc1n2CCCN(C(=O)C2CC2)C1 [Example 440],inducing the production of interferon α and/or tumor necrosis factor α
11,"CC1(C)Cn2c(nc3c(N)nc4ccccc4c32)CN1S(C)(=O)=O [Example 3, 10,10-Dimethyl-9-(methylsulfonyl)-8,9,10,11-tetrahydropyrazino[1′,2′:1,2]imidazo[4,5-c]quinolin-6-amine]",inducing the production of interferon α and/or tumor necrosis factor α
12,Nc1nc2ccccc2c2c1nc1n2CCN(Cc2nccs2)C1.O=C(O)C(F)(F)F [Example 22],inducing the production of interferon α and/or tumor necrosis factor α
13,Nc1nc2ccccc2c2c1nc1n2CCCN(C(=S)NCC2CCCO2)C1 (centres unmarked) [Example 296],inducing the production of interferon α and/or tumor necrosis factor α
14,Cc1nc(N)c2nc3n(c2c1C)CCN(C(=O)NCc1ccccc1)C3 [Example 641],inducing the production of interferon α and/or tumor necrosis factor α
15,CC(C)CN1CCCn2c(nc3c(N)nc4cc(OCc5ccccc5)ccc4c32)C1 [Example 470],inducing the production of interferon α and/or tumor necrosis factor α
16,Nc1nc2ccccc2c2c1nc1n2CCCN(C(=O)c2ccno2)C1.O=C(O)C(F)(F)F [Example 195],inducing the production of interferon α and/or tumor necrosis factor α
